Test results from the supplement of paper PMC4683952.
Where a name gives a salt, the structure may show the parent alone. Hit rate of the full screen: of about 1,200 compounds, about 50 (4%) showed activity. No stated cut-off is given here; in the data, all actives reach 1.3 or more but so do some inactives. Some of the results follow.

Tested on: Lgr5 (MarsCy1-Lgr5-EGFP, U2OS)
Experiment: cell-surface Lgr5 expression (SCi1 fluorescence, background-subtracted) relative to WT DMSO (fold of DMSO control); higher = more Lgr5 at the plasma membrane, active = hit call of the paper
Settings: U2OS MarsCy1-Lgr5-EGFP stable; treatment time: overnight; 16 µM; library: Johns Hopkins Clinical Compound Library

| SMILES | cell-surface Lgr5 expression |
| --- | --- |
| C[C@H](CCC(=O)NCCS(=O)(=O)O)[C@H]1CC[C@H]2[C@@H]3[C@H](O)C[C@@H]4C[C@H](O)CC[C@]4(C)[C@H]3C[C@H](O)[C@]12C [Taurocholic acid, sodium salt hydrate] | inactive: 0.91 |
| O=C([O-])[C@H](O)[C@@H](O)[C@H](O)[C@H](O)CO.OC[C@H]1O[C@@](CO)(O[C@H]2O[C@H](CO)[C@@H](O)[C@H](O)[C@H]2O)[C@@H](O)[C@@H]1O.OC[C@H]1O[C@@](CO)(O[C@H]2O[C@H](CO)[C@@H](O)[C@H](O)[C@H]2O)[C@@H](O)[C@@H]1O.OC[C@H]1O[C@@](CO)(O[C@H]2O[C@H](CO)[C@@H](O)[C@H](O)[C@H]2O)[C@@H](O)[C@@H]1O.OC[C@H]1O[C@@](CO)(O[C@H]2O[C@H](CO)[C@@H](O)[C@H](O)[C@H]2O)[C@@H](O)[C@@H]1O.OC[C@H]1O[C@@](CO)(O[C@H]2O[C@H](CO)[C@@H](O)[C@H](O)[C@H]2O)[C@@H](O)[C@@H]1O.[Fe+3].[Fe+3].[Na+].[O-2].[O-2].[O-2] [Sodium ferric gluconate] | inactive: 0.511 |
| CCOCCn1c(N2CCCN(C)CC2)nc2ccccc21 [Emedastine difumarate] | inactive: 1.01 |
| CC[C@H](C)C(=O)O[C@H]1C[C@H](O)C=C2C=C[C@H](C)[C@H](CC[C@@H](O)C[C@@H](O)CC(=O)O)[C@H]21 [Pravastatin sodium] | inactive: 0.955 |
| Cc1nccn1CC1CCc2c(c3ccccc3n2C)C1=O (stereo not drawn) [Ondansetron HCl] | inactive: 0.717 |
| Nc1c(/N=N/c2ccc(-c3ccc(/N=N/c4cc(S(=O)(=O)O)c5ccccc5c4N)cc3)cc2)cc(S(=O)(=O)O)c2ccccc12 [Congo red] | inactive: 1.21 |
| CC(=O)NC[C@H]1CN(c2ccc(N3CCOCC3)c(F)c2)C(=O)O1 [Linezolid] | inactive: 0.862 |
| COc1ccc2c(c1)c(CC(=O)OCC(=O)O)c(C)n2C(=O)c1ccc(Cl)cc1 [Acemetacin] | inactive: 0.844 |
| COc1ccc2cc3[n+](cc2c1OC)CCc1cc2c(cc1-3)OCO2 [Berberine] | active: 1.64 |
| COc1ccc2cc3[n+](cc2c1OC)CCc1cc2c(cc1-3)OCO2 [Berberine bisulfate] | inactive: 1.47 |
| O=C1CC[C@@](c2ccccc2)(C2CCN(Cc3ccccc3)CC2)C(=O)N1 [Dexetimide] | inactive: 1.08 |
| Nc1nnc(-c2cccc(Cl)c2Cl)c(N)n1 [Lamotrigine] | inactive: 1.08 |
| Nc1nc(=O)[nH]cc1F [Flucytosine (5-Fluorocytosine)] | inactive: 0.748 |

Some of the entries above, reformatted:
SMILES | cell-surface Lgr5 expression
COc1ccc2cc3[n+](cc2c1OC)CCc1cc2c(cc1-3)OCO2 [Berberine] | active: 1.64
Nc1nc(=O)[nH]cc1F [Flucytosine (5-Fluorocytosine)] | inactive: 0.748
